From patent US20250277057A1 (OKLAHOMA MEDICAL RESEARCH FOUNDATION, published 2025) come the findings set out here.

Residue numbers refer to the chain shown, from its start. These are yes or no findings as the source states them, for the method shown. Binding calls can cover weak binding; strength is not graded here.

Assay [1] concerns the target human activated protein C (human). Put plainly: Octet BLI.
For assay [2] the target is unchanged. Put plainly: ELISA, plate coated with haPC 1 ug/mL, anti-hIgG-Fc-HRP. Background: In an ELISA, binding on a coated surface is turned into a signal by an enzyme label.
For assay [3] the target is unchanged. Put plainly: KD ELISA of Fab.
The target is the same in assay [4]. Put plainly: preliminary screening of the Fab mutant library, ELISA.

B1: HAPC-14-9 (antibody, V domains shown)
VH: EVQLVESGGGLVQPGGSLRLSCAASGFTFSFYYLNWVRQAPGKGLEWVGDIRLKKNNYEKHYAESVKGRFTISRDDSKSITYLQMNSLRAEDTAVYYCAREGDTFDYWGQGTTVTVSS
VL: DIQLTQSPSSLSASVGDRVTITCRASESVDSFGATFMHWYQQKPGKAPKLLIYLASRLGSGVPSRFSGSGSGTDFTLTISSLQPEDFATYYCQQNNEDPYTFGQGTKLEIK
notes: Whole IgG, backbone hIgG1; also called HPAC 14-9
B1: the binding entry in assay [1] and in assay [2] was “binds” in each case.

B2: HAPC-14-10 (antibody, V domains shown)
VH: B1 VH with F31N
VL: B1 VL with Q93V
notes: Whole IgG, backbone hIgG1; also called HPAC 14-10
Turning to B2, the binding result in assay [1] and in assay [2] was “binds” throughout.

B3: R2-24D4 (Fab, V domains shown)
VH: B1 VH
VL: B1 VL with R57W, G59P
notes: Combinatorial mutant Fab of HAPC-14; also called combinatorial mutant No. 10
In the case of B3, in assay [3], the binding entry is reported as “binds”.

B4: HAPC-14-R1-3H4-C6 (Fab, V domains shown)
VH: B1 VH with F31N, K55S
VL: B1 VL with R57N, G59E
notes: Single-site mutant Fab of HAPC-14
As to B4, the binding result in assay [4] is given as “binds”.
